# According to patent publication US9410152B2, “Use of microrna molecules to influence skin pigmentation” (CHANEL PARFUMS BEAUTE, priority 2011, dated 2016):
# Some of these results come from one statement about several compounds together. For at least one compound, name, drawing or mass did not settle the structure.
# Test system: miR-7
# Experiment: Expression of miR-7 after compound treatment (qRT-PCR)
# Assay type: cell-based, human
# Details: MNT-1 cells, 48 h, relative to the control (solvent, set at 100%)
structure (smiles),measurement,value
"CCCCCCCCCCCCCCCCOC(=O)C1CCC(CN)CC1 (stereo not shown) [12,093, cetyl tranexamic ester]",increase of expression of miR-7,at least 20%
